# From patent publication US20100284925A1, “Small Molecule Intervention for Obesity” (priority 2006, published 2010)
# Test system: NIH-3T3/L1 preadipocytes
# Assay: Differentiation of NIH-3T3/L1 preadipocytes into adipocytes (oil red O or Nile Red staining)
# Format: cell-based
# Settings: 200 nM staurosporine added at differentiation induction with prieurianin
# Method: FIG. 7. […] NIH-3T3/L1 cells were induced into differentiation and simultaneously treated with 2 μM of prieurianin. Differentiated cells were stained with oil red O—FIG. 7A, undifferentiated control.
# Histogram represents A510 nm absorbance of oil red O stain isopropanol extracts from cells. Results are means±S.E. of triplicate experiments.
# FIG. 19. Effects of bufalin on preadipocyte differentiation, and dedifferentiation/delipidation in adipo-cytes. NIH-3T3/L1 cells were induced into differentiation and simultaneously treated with either 1 μM of bufalin or 2 μM of prieurianin. Differentiated cells were stained with Nile Red. Alternatively, preadipocytes were induced into differentiation and five days following differentiation, cells were treated with either 1 μM of bufalin or 2 μM of prieurianin for an additional five days and followed by staining with Nile Red. Stained cells were evaluated by fluorescence microscopy.
# To determine the effects of prieurianin on the differentiation of preadipocytes to adipocytes, the NIH-3T3/L1 preadipocytes were treated with or without the drug at the same time when induction of differentiation was initiated.
smiles,measurement,value
CN[C@@H]1C[C@H]2O[C@@](C)([C@@H]1OC)n1c3ccccc3c3c4c(c5c6ccccc6n2c5c31)C(=O)NC4 [staurosporine],effect on inhibition of differentiation by prieurianin,partially reversed the inhibition by prieurianin
